Laboratory results: PMC8980073
Positions count from the first letter of the chain named. No constants are given. Whether binding was seen depends on the method and setting. For some assays here: Binding can be weak; no strength is given. For some assays here: Binding seen in cells or lysates may run through a third protein. For some assays here: Where a sequence is shown, tags or fusion partners need not be part of it.

Chains of the proteins cited; added tags and fusions are not shown. Lines headed by an entry give the natural chain unless they say otherwise; changes in a name come on top.
UniProt P36411: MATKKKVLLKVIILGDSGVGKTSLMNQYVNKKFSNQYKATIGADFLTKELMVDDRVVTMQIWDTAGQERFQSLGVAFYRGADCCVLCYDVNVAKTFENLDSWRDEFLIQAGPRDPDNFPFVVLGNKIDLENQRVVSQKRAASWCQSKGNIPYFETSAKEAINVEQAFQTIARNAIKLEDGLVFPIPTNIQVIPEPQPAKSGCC
UniProt Q1ZXL0: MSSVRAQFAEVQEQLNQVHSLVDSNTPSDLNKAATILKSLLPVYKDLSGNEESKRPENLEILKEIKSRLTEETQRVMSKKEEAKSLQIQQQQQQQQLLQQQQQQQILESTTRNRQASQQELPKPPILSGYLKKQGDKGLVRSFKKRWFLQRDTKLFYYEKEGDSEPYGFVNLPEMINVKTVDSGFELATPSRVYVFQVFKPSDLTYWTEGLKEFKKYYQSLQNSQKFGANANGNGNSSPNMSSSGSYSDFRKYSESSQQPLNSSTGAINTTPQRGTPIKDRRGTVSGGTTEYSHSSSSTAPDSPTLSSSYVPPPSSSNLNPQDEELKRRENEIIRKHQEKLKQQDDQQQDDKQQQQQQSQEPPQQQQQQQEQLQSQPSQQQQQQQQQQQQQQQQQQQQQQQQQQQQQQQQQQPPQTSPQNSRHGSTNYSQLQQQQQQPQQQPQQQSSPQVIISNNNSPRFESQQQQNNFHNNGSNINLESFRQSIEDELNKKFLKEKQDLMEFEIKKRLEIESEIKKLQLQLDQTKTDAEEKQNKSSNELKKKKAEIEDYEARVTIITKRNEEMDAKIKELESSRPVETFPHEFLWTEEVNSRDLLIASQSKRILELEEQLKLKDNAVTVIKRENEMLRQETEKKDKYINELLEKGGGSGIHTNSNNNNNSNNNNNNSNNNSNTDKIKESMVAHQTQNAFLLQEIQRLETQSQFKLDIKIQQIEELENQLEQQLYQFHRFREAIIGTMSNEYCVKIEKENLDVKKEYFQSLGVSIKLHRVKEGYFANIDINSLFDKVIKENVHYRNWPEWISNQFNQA

What was measured:
[1] = molecular target: T1, GST-Rab5A^Q68L (constitutively active form) (Dictyostelium discoideum) (UniProt Q86JP3); test: pull-down; glutathione sepharose beads with 15 μg GST-Rab protein incubated with lysate of Dictyostelium cells expressing the GFP fusion, 4 °C, 2 h; 20 mM Hepes pH 7.2, 100 mM NaCl, 0.3% CHAPS, 5 mM MgCl2, 1 mM DTT; anti-GFP blot; only the target purified
T1 sequence: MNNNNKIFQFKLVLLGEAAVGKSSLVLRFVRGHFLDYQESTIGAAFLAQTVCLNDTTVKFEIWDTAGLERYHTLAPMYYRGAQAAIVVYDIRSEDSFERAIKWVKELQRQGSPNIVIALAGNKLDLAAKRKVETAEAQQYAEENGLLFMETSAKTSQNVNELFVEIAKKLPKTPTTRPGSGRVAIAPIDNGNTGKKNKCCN

[2] = molecular target: GST-Rab7A^T22N (dominant negative form) (Dictyostelium discoideum) (UniProt P36411); test: as above
[3] = molecular target: T2, GST-Rab5A^S23N (dominant negative form) (Dictyostelium discoideum) (UniProt Q86JP3); test: as above
T2 sequence: T1 sequence with S23N, L68Q

[4] = molecular target: GST-Rab7A^Q67L (constitutively active form) (Dictyostelium discoideum) (UniProt P36411); test: as above
[5] = molecular target: T3, Rab5A, wild type, yeast two-hybrid bait (Dictyostelium discoideum) (UniProt Q86JP3); test: two-hybrid; Matchmaker GAL4 Two-Hybrid System 3, S. cerevisiae AH109; PripA, PripA-ΔPH or TbcrA-TBC as prey on the Gal4 activation domain (pGADT7), Rab GTPases on the Gal4 DNA binding domain (pGBKT7)
T3 sequence: T1 sequence with L68Q

[6] = molecular target: T4, Rab5A^Q68L, constitutively active form, yeast two-hybrid bait (Dictyostelium discoideum) (UniProt Q86JP3); test: as above
T4 sequence: T1 sequence

[7] = molecular target: T5, Rab5A^S23N, dominant negative form, yeast two-hybrid bait (Dictyostelium discoideum) (UniProt Q86JP3); test: as above
T5 sequence: T1 sequence with S23N, L68Q

[8] = molecular target: T6, Rab7B, wild type, yeast two-hybrid bait (Dictyostelium discoideum) (UniProt Q54K69); test: as above
T6 sequence: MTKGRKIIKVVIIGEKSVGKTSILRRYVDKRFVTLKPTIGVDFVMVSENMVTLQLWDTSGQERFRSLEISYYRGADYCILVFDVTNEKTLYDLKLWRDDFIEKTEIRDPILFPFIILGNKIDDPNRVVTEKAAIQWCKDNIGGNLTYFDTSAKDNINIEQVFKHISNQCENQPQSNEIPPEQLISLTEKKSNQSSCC

GFP-TbcrA (Dictyostelium discoideum)
binding [1]: binds

PripA-GFP (from UniProt Q1ZXL0)
binding [2]: no binding | binding [3]: no binding | binding [1]: no binding | binding [4]: binds

PripA-ΔPH, yeast two-hybrid prey (Dictyostelium discoideum) (domain or fragment)
binding [5]: no binding | binding [6]: no binding | binding [7]: no binding | binding [8]: binds

PripA-ΔPH-GFP (Dictyostelium discoideum) (domain or fragment)
binding [3]: no binding | binding [1]: no binding
